Experimental data taken from patent US20170189504A1, “NOVEL PEPTIDES AND COMBINATION OF PEPTIDES FOR USE IN IMMUNOTHERAPY AGAINST VARIOUS CANCERS” (immatics biotechnologies GmbH, priority 2015, published 2017).
For part of these data: Expression values are those of the mRNA of the gene that encodes the peptide; a gene is named only where it was looked up.

What was measured:
source genes (mRNA) [1] = test: Expression profiling of source genes by in-house RNASeq of tumor and normal tissues (Table 18, FIG. 2); parameters: species or system human; key: very highly over-expressed in tumors compared to a panel of normal tissues (+++); highly over-expressed in tumors compared to a panel of normal tissues (++); over-expressed in tumors compared to a panel of normal tissues (+); settings: source gene of peptide; for Expression score BRCA: BRCA tumors vs panel of normal tissues; for Expression score OSCAR: esophageal cancer incl. gastric-esophageal junction (N = 11) vs panel of normal tissues; for Expression score GBC_CCC: gallbladder adenocarcinoma and cholangiocarcinoma (N = 3) vs panel of normal tissues; for Expression score GB: glioblastoma (N = 24) vs panel of normal tissues; for Expression score NHL: non-Hodgkin lymphoma (N = 10) vs panel of normal tissues; for Expression score NSCLC: non-small cell lung cancer (N = 11) vs panel of normal tissues; for Expression score PC: pancreatic cancer (N = 26) vs panel of normal tissues; for Expression score SCLC: small cell lung cancer (N = 10) vs panel of normal tissues; for Expression score UBC: urinary bladder cancer (N = 10) vs panel of normal tissues; for Expression score UEC: uterine cancer (N = 10) vs panel of normal tissues
source genes (mRNA) [2] = test: Gene and exon expression of source genes, TCGA tumor samples compared with normal tissue samples (Lonsdale, 2013) (Table 17); parameters: species or system human; settings: for Over-expression category of source gene (target coverage), BLCA: BLCA = Bladder urothelial carcinoma (N = 408); for Over-expression category of source gene (target coverage), BLCA / Over-expression category of source gene (target coverage), CHOL / Over-expression category of source gene (target coverage), COAD / Over-expression category of source gene (target coverage), DLBC / Over-expression category of source gene (target coverage), ESCA / Over-expression category of source gene (target coverage), GBM / Over-expression category of source gene (target coverage), KIRC / Over-expression category of source gene (target coverage), KIRP / Over-expression category of source gene (target coverage), LAML / Over-expression category of source gene (target coverage), LIHC / Over-expression category of source gene (target coverage), LUAD / Over-expression category of source gene (target coverage), LUSC / Over-expression category of source gene (target coverage), OV / Over-expression category of source gene (target coverage), PAAD / Over-expression category of source gene (target coverage), PRAD / Over-expression category of source gene (target coverage), READ / Over-expression category of source gene (target coverage), SKCM / Over-expression category of source gene (target coverage), STAD / Over-expression category of source gene (target coverage), UCEC / Over-expression category of source gene (target coverage), LGG / Over-expression category of source gene (target coverage), KICH: same cutoff; for Over-expression category of source gene (target coverage), BRCA: BRCA = Breast cancer (N = 1104), tumors more than 2-fold above highest 75% percentile of normal tissues; for Over-expression category of source gene (target coverage), CHOL: CHOL = Cholangiocarcinoma (N = 36); for Over-expression category of source gene (target coverage), COAD: COAD = Colon and rectal adenocarcinoma (N = 462); for Over-expression category of source gene (target coverage), DLBC: DLBC = Lymphoid neoplasm diffuse large B-cell lymphoma (N = 48); for Over-expression category of source gene (target coverage), ESCA: ESCA = Esophageal cancer (N = 185); for Over-expression category of source gene (target coverage), GBM: GBM = Glioblastoma multiforme (N = 169); for Over-expression category of source gene (target coverage), KIRC: KIRC = Clear cell kidney carcinoma (N = 534); for Over-expression category of source gene (target coverage), KIRP: KIRP = Papillary kidney carcinoma (N = 291); for Over-expression category of source gene (target coverage), LAML: LAML = Acute Myeloid Leukemia (N = 173); for Over-expression category of source gene (target coverage), LIHC: LIHC = Liver hepatocellular carcinoma (N = 374); for Over-expression category of source gene (target coverage), LUAD: LUAD = Lung adenocarcinoma (N = 517); for Over-expression category of source gene (target coverage), LUSC: LUSC = Lung squamous cell carcinoma (N = 503); for Over-expression category of source gene (target coverage), OV: OV = Ovarian serous cystadenocarcinoma (N = 309); for Over-expression category of source gene (target coverage), PAAD: PAAD = Pancreatic ductal adenocarcinoma (N = 179); for Over-expression category of source gene (target coverage), PRAD: PRAD = Prostate adenocarcinoma (N = 498); for Over-expression category of source gene (target coverage), READ: READ = Colon and rectal adenocarcinoma (N = 167); for Over-expression category of source gene (target coverage), SKCM: SKCM = Skin cutaneous melanoma (N = 473); for Over-expression category of source gene (target coverage), STAD: STAD = Stomach adenocarcinoma (N = 415); for Over-expression category of source gene (target coverage), UCEC: UCEC = Uterine corpus endometrial carcinoma (N = 546); for Over-expression category of source gene (target coverage), LGG: LGG = Lower grade glioma (N = 534); for Over-expression category of source gene (target coverage), KICH: KICH = Kidney chromophobe (N = 66)
HLA-A*24 = test: Identification and relative LC-MS quantitation of HLA-A*24-presented tumor-associated peptides on tissue samples (presentation profiles, Tables 14A, 14B, 16, FIG. 1); parameters: species or system human; key to Presentation score GC / Presentation score NSCLC / Presentation score PCA / Presentation score GB / Presentation score HCC / Presentation score RCC: specifically presented on tumors (++++); very highly over-presented on tumors compared to a panel of normal tissues (+++); highly over-presented on tumors compared to a panel of normal tissues (++); over-presented on tumors compared to a panel of normal tissues (+); settings: for Presentation score GC: gastric cancer (N = 44) vs panel of normal tissues (N = 70); for Presentation score GB: glioblastoma (N = 18) vs panel of normal tissues (N = 70); for Presentation score NSCLC: non-small cell lung cancer (N = 91) vs panel of normal tissues (N = 70); for Peptide Presentation on cancer entities: Table 14A, HLA-A*24-binding tumor-associated peptides, cancer entities on which the peptide was found presented

Substance	Expression score BRCA (source genes (mRNA) [1])	Expression score OSCAR (source genes (mRNA) [1])	Expression score GB (source genes (mRNA) [1])	Expression score NSCLC (source genes (mRNA) [1])	Over-expression category of source gene (target coverage), BRCA (source genes (mRNA) [2])	Over-expression category of source gene (target coverage), CHOL (source genes (mRNA) [2])	Over-expression category of source gene (target coverage), COAD (source genes (mRNA) [2])	Over-expression category of source gene (target coverage), ESCA (source genes (mRNA) [2])	Over-expression category of source gene (target coverage), GBM (source genes (mRNA) [2])	Over-expression category of source gene (target coverage), LUAD (source genes (mRNA) [2])	Over-expression category of source gene (target coverage), LUSC (source genes (mRNA) [2])	Over-expression category of source gene (target coverage), OV (source genes (mRNA) [2])	Over-expression category of source gene (target coverage), PRAD (source genes (mRNA) [2])	Over-expression category of source gene (target coverage), READ (source genes (mRNA) [2])	Over-expression category of source gene (target coverage), SKCM (source genes (mRNA) [2])	Over-expression category of source gene (target coverage), STAD (source genes (mRNA) [2])	Over-expression category of source gene (target coverage), UCEC (source genes (mRNA) [2])	Presentation score GC (HLA-A*24; HLA-A*24 peptides)	Presentation score GB (HLA-A*24; HLA-A*24 peptides)	Peptide Presentation on cancer entities (HLA-A*24)	further results
201: peptide found in NDC1 (gene looked up) (IYATEAHVF; listed as Homo sapiens) [compound 201]	+	++	+	+	A (>=50% of tumors above the cutoff)	B (>= 20% of tumors above the cutoff, but <50%)	A (>=50% of tumors above the cutoff)	A (>=50% of tumors above the cutoff)	B (>= 20% of tumors above the cutoff, but <50%)	B (>= 20% of tumors above the cutoff, but <50%)	A (>=50% of tumors above the cutoff)	A (>=50% of tumors above the cutoff)	C (>=5% of tumors above the cutoff, but <20%)	A (>=50% of tumors above the cutoff)	B (>= 20% of tumors above the cutoff, but <50%)	A (>=50% of tumors above the cutoff)	B (>= 20% of tumors above the cutoff, but <50%)	+	+++	GB, GC, NSCLC, HCC, PCA	Expression score CRC (source genes (mRNA) [1]; colorectal cancer (N = 20) vs panel of normal tissues): +; Expression score GBC_CCC (source genes (mRNA) [1]): +; Expression score GC (source genes (mRNA) [1]; gastric cancer (N = 11) vs panel of normal tissues): +; Expression score NHL (source genes (mRNA) [1]): ++; Expression score OC (source genes (mRNA) [1]; ovarian cancer (N = 12) vs panel of normal tissues): ++; Expression score PC (source genes (mRNA) [1]): +; Expression score SCLC (source genes (mRNA) [1]): ++; Expression score UBC (source genes (mRNA) [1]): +; Expression score UEC (source genes (mRNA) [1]): +; Over-expression category of source gene (target coverage), BLCA (source genes (mRNA) [2]): B (>= 20% of tumors above the cutoff, but <50%); Over-expression category of source gene (target coverage), DLBC (source genes (mRNA) [2]): B (>= 20% of tumors above the cutoff, but <50%); Over-expression category of source gene (target coverage), KIRC (source genes (mRNA) [2]): C (>=5% of tumors above the cutoff, but <20%); Over-expression category of source gene (target coverage), KIRP (source genes (mRNA) [2]): C (>=5% of tumors above the cutoff, but <20%); Over-expression category of source gene (target coverage), LAML (source genes (mRNA) [2]): A (>=50% of tumors above the cutoff); Over-expression category of source gene (target coverage), LIHC (source genes (mRNA) [2]): C (>=5% of tumors above the cutoff, but <20%); Over-expression category of source gene (target coverage), PAAD (source genes (mRNA) [2]): C (>=5% of tumors above the cutoff, but <20%); Presentation score NSCLC (HLA-A*24; HLA-A*24 peptides): ++
207: peptide found in HEATR5A (gene looked up) (AYVVFVSTL; listed as Homo sapiens) [compound 207]			+	+	C (>=5% of tumors above the cutoff, but <20%)		C (>=5% of tumors above the cutoff, but <20%)	B (>= 20% of tumors above the cutoff, but <50%)	A (>=50% of tumors above the cutoff)	C (>=5% of tumors above the cutoff, but <20%)	B (>= 20% of tumors above the cutoff, but <50%)	B (>= 20% of tumors above the cutoff, but <50%)	C (>=5% of tumors above the cutoff, but <20%)	C (>=5% of tumors above the cutoff, but <20%)	C (>=5% of tumors above the cutoff, but <20%)	C (>=5% of tumors above the cutoff, but <20%)	C (>=5% of tumors above the cutoff, but <20%)	+++	+++	GB, GC, NSCLC	Over-expression category of source gene (target coverage), LGG (source genes (mRNA) [2]): B (>= 20% of tumors above the cutoff, but <50%)
208: peptide found in CALCA (gene looked up) (TYTQDFNKF; listed as Homo sapiens) [compound 208]						C (>=5% of tumors above the cutoff, but <20%)				C (>=5% of tumors above the cutoff, but <20%)										NSCLC, HCC	Expression score HCC (source genes (mRNA) [1]; hepatocellular carcinoma (N = 15) vs panel of normal tissues): +++; Expression score PC (source genes (mRNA) [1]): +++; Expression score SCLC (source genes (mRNA) [1]): +++; Over-expression category of source gene (target coverage), KICH (source genes (mRNA) [2]): B (>= 20% of tumors above the cutoff, but <50%); Presentation score HCC (HLA-A*24; HLA-A*24 peptides, hepatocellular carcinoma (N = 15) vs panel of normal tissues (N = 70)): +; Presentation score NSCLC (HLA-A*24; HLA-A*24 peptides): +++
210: peptide found in MDM2 (gene looked up) (IYTMIYRNL; listed as Homo sapiens) [compound 210]	+	+	++	+	A (>=50% of tumors above the cutoff)	B (>= 20% of tumors above the cutoff, but <50%)	C (>=5% of tumors above the cutoff, but <20%)	A (>=50% of tumors above the cutoff)	B (>= 20% of tumors above the cutoff, but <50%)	B (>= 20% of tumors above the cutoff, but <50%)	B (>= 20% of tumors above the cutoff, but <50%)	C (>=5% of tumors above the cutoff, but <20%)	C (>=5% of tumors above the cutoff, but <20%)	C (>=5% of tumors above the cutoff, but <20%)	B (>= 20% of tumors above the cutoff, but <50%)	A (>=50% of tumors above the cutoff)	B (>= 20% of tumors above the cutoff, but <50%)	+	+++	GB, GC, NSCLC	Expression score AML (source genes (mRNA) [1]; acute myeloid leukemia (N = 11) vs panel of normal tissues): +; Expression score GBC_CCC (source genes (mRNA) [1]): +++; Expression score NHL (source genes (mRNA) [1]): +; Expression score RCC (source genes (mRNA) [1]; renal cell carcinoma (N = 10) vs panel of normal tissues): +; Expression score UBC (source genes (mRNA) [1]): +; Expression score UEC (source genes (mRNA) [1]): +; Over-expression category of source gene (target coverage), BLCA (source genes (mRNA) [2]): B (>= 20% of tumors above the cutoff, but <50%); Over-expression category of source gene (target coverage), DLBC (source genes (mRNA) [2]): C (>=5% of tumors above the cutoff, but <20%); Over-expression category of source gene (target coverage), KICH (source genes (mRNA) [2]): C (>=5% of tumors above the cutoff, but <20%); Over-expression category of source gene (target coverage), KIRC (source genes (mRNA) [2]): A (>=50% of tumors above the cutoff); Over-expression category of source gene (target coverage), KIRP (source genes (mRNA) [2]): B (>= 20% of tumors above the cutoff, but <50%); Over-expression category of source gene (target coverage), LAML (source genes (mRNA) [2]): A (>=50% of tumors above the cutoff); Over-expression category of source gene (target coverage), LGG (source genes (mRNA) [2]): C (>=5% of tumors above the cutoff, but <20%); Over-expression category of source gene (target coverage), LIHC (source genes (mRNA) [2]): C (>=5% of tumors above the cutoff, but <20%); Over-expression category of source gene (target coverage), PAAD (source genes (mRNA) [2]): C (>=5% of tumors above the cutoff, but <20%)
